Results on 21 sequences are retold here after paper PMC12370185.

The list shows a part of the results. For part of these data: At the low end of the ranking the order means little.

Holding throughout (settings): 10 mM Tris-Cl pH 7.5, 50 mM NaCl, 1 mM DTT, 0.25 mg/ml BSA, 2 mM MgCl2, 0.025% Nonidet P-40, 5% glycerol; 28 nM nucleosome library; 10 min on ice then 30 min …; high values mean tight binding; double strand, one strand shown
Assay [1] concerns KLF4 + histone octamer. The experiment in a line: EMSA with sequencing. (Mobility shift assays separate free from complexed probe on a gel.)
Assay [2] concerns SOX2 + histone octamer. The experiment in a line: EMSA with sequencing.
In assay [3] the test system is OCT4 + histone octamer. The experiment in a line: Pioneer-seq (competitive nucleosome EMSA with sequencing).
In assay [4] the test system is c-MYC + MAX + histone octamer. The description is as above.
The subject of assay [5] is c-MYC + MAX + histone octamer. Briefly: EMSA with sequencing.
Assay [6] concerns SOX2 + histone octamer. Briefly: Pioneer-seq (competitive nucleosome EMSA with sequencing).

Take “GATGGACCCTATACGCGGCTAGCCCAACTATTTAACTAAAGGAACTTTGTAATATCTGGACTCAGAAACTGAGATAAATGCCATAACCAATCATCCAACCGGAGACTGAGGTACATGTAATCAGGTTCAAAAGTGACTCTAAAGGTACTTGCCTGGCAGCATGACAAAGTGGCATATTATTACACTCCTTAAACACTTTGTGAGAAGCAGTGCCAGTCGGATAGTGTTCC”: the binding signal (log2 relative supershift) in assay [1] was 1.88; in assay [2] it was 0.614; in assay [3], -0.256; in assay [4] it was -0.0312.
Regarding “GATGGACCCTATACGCGGCATGGCCTGAGACTCCTGGCCTCTTTCCAACCTAGGGACCACCTGCCACCCCACCCAAACCTCAAGCATGCTGTTGTGTGGCTTCTGCATCCACCCCACCTCAGCTGTGTCTGCGTCACTGGGCAGATGTAGGGATCCCCGTGTACCATGCGCACATGGCCTTGTTTGTGATTAGTGGGGCCCCGAGGGAAATGCCAGTCGGATAGTGTTCC”, the binding signal (log2 relative supershift) in assay [1] was 1.97; in assay [5], 1.13; in assay [3] it was -0.982; in assay [6], -0.426.
Regarding “GATGGACCCTATACGCGGCAGAATTTCAGGACAATGACTGCAGAACATTAAACTAAGCATGGGTCCTTCTGAGTACTGGGCCCTGTGTGACTGCAGAGGCCTCACACTCATGAAGCTGGCCCTGCATTCATGTGGAAATGTGTAAAAAATAGATATTGAAGTCGGGAGAGCTGGTGAAAGGTCATTTTTGGAGATGTAGGCTTGGGAATTTGCCAGTCGGATAGTGTTCC”, the binding signal (log2 relative supershift) in assay [1] is 0.348; in assay [2] it was 0.691; in assay [3] it was -0.562; in assay [4] it was -0.224.
For “GATGGACCCTATACGCGGCCATGTTGAATGGGTGAACTGTATGGTATGTCATTATATTTCAAGAAGCCATTAAAAAAAAACAACAGAAAGCCTTGCTGCAACATGCCTGCACTTGCTCCTGCCACATTCAGGTGGTTCTGAGCTGAAGCCACAGACAGGTCTCCCTGGGTTAGAGGTGTTCCCTGCTGGTCAGATCATTTATGATTGGAATGCCAGTCGGATAGTGTTCC” the same measures were 0.61, 0.903, -0.361 and -0.169.
For “GATGGACCCTATACGCGGCTTCACAGTACTACTCCCTACCTGACTGTCTCAGCATATGAATGCAAACTGCAGAAGGGTAGAAACTTGCTATTTACTGCAGTAGCCTCTGGCCCTAGGATACTTGCCTAACACTGCATGGATGTAATTGTCAGCCAGTCAATTGCATGGAATTTTGCTGAAAGTACAACTTTTGTCATTGCTTAGGAGAAGTGCCAGTCGGATAGTGTTCC” the same measures were 1.57, 0.923, -0.154 and -0.172.
On the same counts, the results for “GATGGACCCTATACGCGGCTACTCACATTTGACTAATTGCCCACCCACTCCAGCATTAGAGATGTTATTAGTATGCAGATTTGTGGTAATCCCTGGATGGGTGAGGCTTCCTAGATCTCCCTTTCTCACAGGCTCCCCCTCCTGCTATCTGCCTACTCTAACAGAAATGTTTTCTATCTTAACTGTGTCAATGTCAGTATCTTGATTGTGTGCCAGTCGGATAGTGTTCC” are 1.83, 0.806, -0.362 and -0.111.
Turning to “GATGGACCCTATACGCGGCATAGCACAGTAGCTGTGAGGAAGTGACCGCTCAGGTGTTGGGTGATGTGTCTAGGGTCACATTGCCTAGAAGAGTGGCAGGGCTGCGCTTGCTGCAGGCTTGCTTGATCCTGAAGCCCTGGTTCCTCTCACCATGCCCTGGGCTGCAGAACTCACTTCTGGGCCTTGTAAGGCCGCTGGTGGGTAATGGTGTGCCAGTCGGATAGTGTTCC”, the binding signal (log2 relative supershift) in assay [1] is 0.951; in assay [5], 0.353; in assay [3] it was -0.0939; in assay [6], -0.201.
“GATGGACCCTATACGCGGCGCTGCCACATCCATTCATTTATGTGATCCAAAGAGGTGGAGGCAGAGGCAGTCACAAGCCTGGACTTGAGTCAGGCAGGCCTGGGCTGGAACTTGGATTAGCAGACCACAGCCAAGCACTTCACTCATCTCTAAATCTGGAATTGTAGAAGTCTTTCTCCCATTTTATATGTGCTTGCAGGATTCCTTAAGTGCCAGTCGGATAGTGTTCC”: the binding signal (log2 relative supershift) was 1.4 in assay [1], 1.07 in assay [2], -0.139 in assay [3] and -0.0925 in assay [4].
For “GATGGACCCTATACGCGGCGCACTGTAGCTGTCGACTTTGTTTCAGACACCAGCCTTCCCCCACACTTCTGCATGACCCAGGTCACTATGAGACACCCAGACGTGTTGATGACAGTGACATTTGTCCTAGAGTGACCACACTGATCCTTTCTAGCACTGTGAAGAGTGTGCAGCTTCCTCTGAACCAAGGTTTCCAAAAGGTTTTGATATTGCCAGTCGGATAGTGTTCC”, the binding signal (log2 relative supershift) is 0.538 in assay [1], 0.777 in assay [2], -0.61 in assay [3] and -0.0793 in assay [4].
Consider “GATGGACCCTATACGCGGCTACACACACGCGCACACCCATACACACGCACCATCTAACACAGTTTGTTCTGCCTAAACTTGGAGGCCCCAGCCATGGCTGGACGAATGCAAAAGAGGAGCAGTGGTGCGAATGAGGCAGTGACCATGCCAGGCCAGAGAACTGGGGCTGCCCACTGCTACTCCTCACTGAGTTGCCCTTGGCTTGTGCTATGCCAGTCGGATAGTGTTCC”, for which the binding signal (log2 relative supershift) in assay [1] was 2.28; in assay [5] it was 0.881; in assay [3], -0.0652; in assay [6] it was -0.175.
For the sequence “GATGGACCCTATACGCGGCCACGCTCATTTGTCTGGAGAAAACACTGAGACCTGGAGCATGTGTGTACATGCTCACCATACAGCCCGCCCCCGATGATTGTCAGGAGAGTCAGCTGATCTGAGAAAGTGACAAGCATTGGTCATTTCAGAGAAACCGGGAGTTGGGCTTTTTAAAAGAGGCATAAAGAAACTGGGAAAATGAGACTGAGTTGCCAGTCGGATAGTGTTCC”, the binding signal (log2 relative supershift) is 0.753 in assay [1], 0.753 in assay [2], -0.622 in assay [3] and -0.0856 in assay [4].
Turning to “GATGGACCCTATACGCGGCAAAATCTGGGTGTGGAAGAACTGTTGAACAATAGGTTAGCTCTATGTTCTACAACAGACTGTCTCTCAAATGCAGAGTTCTGTGTGTTTATTGACTACTAGCGTCAGCTTCTGTGCAGCTGAGATACAAATTCAGCCCTAGGCTTTTATCCACAGATCTGAGAGGAGGAAGGCAGGCAGGCACCTGTAATTTGCCAGTCGGATAGTGTTCC”, the binding signal (log2 relative supershift) in assay [1] was 2.61; in assay [2] it was 1.21; in assay [3], -0.258; in assay [4] it was -0.117.
On the same counts, the results for “GATGGACCCTATACGCGGCGATACCACAAAAAGCACAGTTTCATAGGTCAGTTTAATTCTATAGCAGTCTTTTTTGTCAGCATAGCTGGCGATTCCATCTGTTTTAATTTAAGATTCACCCCAGCCATGCCTCTGTAGCAGGTGACACGTGCACACACACACACACCCCCACACCCACACACTGTTTCCTTATGTAACATACATGATGTATGCCAGTCGGATAGTGTTCC” are 0.253, 1.16, -0.71 and -0.0566.
As for “GATGGACCCTATACGCGGCCAGGGTGAAAAGACTGGCCAGACATTTTCTGGAAAGAGGCAGGCTAAGCAGGAGCTTGGTAAACAAAAGCAGGAAATGGAGCGTTCAGAACATCCACAGACGTGTTCAGACATGCAGGCCCCTGCCGGGCTGCAGAGAGTATGACAATTCGGGCTTGTGTGGTGTGGAGGTACCCAATGGGATGGGACCCCTGCCAGTCGGATAGTGTTCC”, the binding signal (log2 relative supershift) in assay [1] is 1.8; in assay [2], 0.995; in assay [3] it was -0.805; in assay [4], -0.0713.
On to “GATGGACCCTATACGCGGCAGCATGATTCTCGCGATCCATTACTTCTGAAACAGATGACTCCCAGCAGCTGCTGCCTGTGGCCCACAGGGCTTCCTGCCCTGCATGACAGCTGCACATCACATCCTGTGGTCATACTACTTCAGCCGCTTCTACGGCCAGATACAAAAGTGGGTGGGGAACATAGGCAAGGGATCCAGCGACTTTACCGGTGCCAGTCGGATAGTGTTCC”, for which the binding signal (log2 relative supershift) in assay [1] was 2.06; in assay [5], 0.598; in assay [3] it was -0.606; in assay [6], -0.05.
For “GATGGACCCTATACGCGGCCCACAGGACTGGAGCCATCCCCAAGGTGAGTGTCAGGATGTTTTGAAACTGGGACACACTGTACAGGGGTGAACAAAGGAATCTGCTTTTCAATACCACACTGCCTGCTGCAACCAAATGTCACTGCAGGGCTTAACAGTGAGTAAATGCTGTGTGTGTAAATGCTTCTTCTATGTTTAAAAAACAGGAAATGCCAGTCGGATAGTGTTCC”, the binding signal (log2 relative supershift) in assay [1] is 0.955; in assay [2] it was 0.309; in assay [3] it was -0.307; in assay [4], -0.0712.
For “GATGGACCCTATACGCGGCCCTACCTGTTTCTTGCAGTCGTGTATTCTGGGACTTTCCTCATGGTGGGACCTTTCACACAACCCTCCTCTTCAAGCTGGGCAAGCCTGTTCTTGTCTCTCTTGTGCTTCAGGAGGAAGTACTGGAGAAGATGTAAGTTTTTAAGCCTTCATTTGGGGGGATGTGGAATGAAGGCAAAGGAGAGATGGGCATGCCAGTCGGATAGTGTTCC” the same measures were 3.1, 1.3, -0.349 and -0.182.
For “GATGGACCCTATACGCGGCCTAATGTGCCTTTGTTAGCAATATCACTTATTTTCTTCAACTGATGTTGAACACATTGTGCTCTCCCAAGCAGGTCTTAAGTCATGCCACGTCAGGGCTGGACCGCTCTTCTTATTCTGCACATGGGCCCTCACTTAGGCAGGGGTGCGGTCAACATTGAAAGAGGTTCCATTCTAGGAATGTAGTGGTTATGCCAGTCGGATAGTGTTCC” the same measures were 0.858, 1.73, -0.436 and -0.317.
Consider “GATGGACCCTATACGCGGCTACTGTAGTGCAGCAAATATCTGTAGTGGCTAAAACTACATTTATTACTCCTTGTAAGTCTGTGTGTTTGCGGGGTAGATTAACTGATACAGGCTGGGCTTGACCAATCTCAATCTCAATGAGCTTGTTCATGTCCTGTGGTCAGTGGGGGATTGGCTAGTCTAGGATGGTCATGGCTGGGAGATATCATCTGCCAGTCGGATAGTGTTCC”, for which the binding signal (log2 relative supershift) in assay [1] is 1.56; in assay [5] it was 0.342; in assay [3], -0.431; in assay [6], -0.471.
With “GATGGACCCTATACGCGGCCCTAGTAGCTGGGAGTTCCCTCTCTGGAGGCCTGTTCCCATTTCTCCAGAGACAATGCTGCATCACAATGTTCCAGATCTTTCACAGGTCATTGACAGGCATCCTATAGGACTTCCCCCCAATACCCCCACCCCGAGAACTCTTTCAGTGGGTTCTCCAGTGACTTAGAAACAAATTTTTTCCTTGGTGGGTGCCAGTCGGATAGTGTTCC”, the binding signal (log2 relative supershift) is 2.55 in assay [1], 0.411 in assay [2], -0.307 in assay [3] and -0.16 in assay [4].
“GATGGACCCTATACGCGGCGACATTGAATCCCCTCACTATAATCTGAATGTGATTTATTATCCCCTTAAAGAGGGGCATCCATACAGGCATGGTCTAATCCCTTGCAATTCAAAGTGTAATCCAAAAGCCAGTAGCATTTGCATCACTTGGGAGCCTGTTACAAATGCACAACCTCAGACCCACCCCACACCTACTGAATCAAGATCCACTGCCAGTCGGATAGTGTTCC”: the binding signal (log2 relative supershift) is 1.98 in assay [1], 0.551 in assay [2], -0.112 in assay [3] and -0.062 in assay [4].
